The values that follow come from paper PMC7619535.

Protein sequences, listed by entry. Tags and fused reporters are not part of them.
UniProt Q8CFN5: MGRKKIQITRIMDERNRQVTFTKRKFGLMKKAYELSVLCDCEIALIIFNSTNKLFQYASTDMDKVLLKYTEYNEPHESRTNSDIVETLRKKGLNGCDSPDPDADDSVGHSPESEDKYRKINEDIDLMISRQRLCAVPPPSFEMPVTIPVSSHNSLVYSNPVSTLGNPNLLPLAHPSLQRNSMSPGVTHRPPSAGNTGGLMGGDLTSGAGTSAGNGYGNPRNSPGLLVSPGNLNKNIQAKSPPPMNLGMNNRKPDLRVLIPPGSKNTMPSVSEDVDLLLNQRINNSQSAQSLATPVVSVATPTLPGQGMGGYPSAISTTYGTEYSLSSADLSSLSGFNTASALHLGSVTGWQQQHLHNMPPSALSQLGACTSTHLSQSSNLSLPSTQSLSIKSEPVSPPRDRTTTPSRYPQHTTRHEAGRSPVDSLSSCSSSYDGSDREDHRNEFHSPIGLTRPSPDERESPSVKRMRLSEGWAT

The experiment has as its target myocyte enhancer factor 2c (Mef2c) (mouse (endogenous in P12 C57BL/6 cortex)) (UniProt Q8CFN5). As to the kind of experiment: co-IP; nuclear fractions of P12 C57BL/6 mouse cortex in 20 mM Hepes, 90 mM NaCl, 1 mM MgCl2; overnight at 4°C with 8 μg rabbit anti-Mef2c or rabbit IgG isotype control; Dynabeads Protein G; six washes (150 mM NaCl, 1% NP40); Western blot for PGC-1α. In general terms: A western blot detects proteins with antibodies after separation by electrophoresis.

No constants are given. Whether binding was seen depends on the method and setting. Binding seen in cells or lysates may run through a third protein. Some entries that bind do so weakly or less than the wild type.

B1: peroxisome proliferator-activated receptor-gamma coactivator 1-alpha, long isoform (PGC-1α1) (protein, UniProt O70343 1-797)
chain: MAWDMCSQDSVWSDIECAALVGEDQPLCPDLPELDLSELDVNDLDTDSFLGGLKWCSDQSEIISNQYNNEPANIFEKIDEENEANLLAVLTETLDSLPVDEDGLPSFDALTDGAVTTDNEASPSSMPDGTPPPQEAEEPSLLKKLLLAPANTQLSYNECSGLSTQNHAANHTHRIRTNPAIVKTENSWSNKAKSICQQQKPQRRPCSELLKYLTTNDDPPHTKPTENRNSSRDKCASKKKSHTQPQSQHAQAKPTTLSLPLTPESPNDPKGSPFENKTIERTLSVELSGTAGLTPPTTPPHKANQDNPFKASPKLKPSCKTVVPPPTKRARYSECSGTQGSHSTKKGPEQSELYAQLSKSSGLSRGHEERKTKRPSLRLFGDHDYCQSLNSKTDILINISQELQDSRQLDFKDASCDWQGHICSSTDSGQCYLRETLEASKQVSPCSTRKQLQDQEIRAELNKHFGHPCQAVFDDKSDKTSELRDGDFSNEQFSKLPVFINSGLAMDGLFDDSEDESDKLSYPWDGTQPYSLFDVSPSCSSFNSPCRDSVSPPKSLFSQRPQRMRSRSRSFSRHRSCSRSPYSRSRSRSPGSRSSSRSCYYYESSHYRHRTHRNSPLYVRSRSRSPYSRRPRYDSYEAYEHERLKRDEYRKEHEKRESERAKQRERQKQKAIEERRVIYVGKIRPDTTRTELRDRFEVFGEIEECTVNLRDDGDSYGFITYRYTCDAFAALENGYTLRRSNETDFELYFCGRKQFFKSNYADLDTNSDDFDPASTKSKYDSLDFDSLLKEAQRSLRR
Turning to B1, the binding result is “binds”.
